Measured values from US20100021918A1, “METHOD FOR ASSAYING ACTION OF ANTITUMOR AGENT USING SPLICING DEFECTS AS INDEX” (Eisai R&D Management Co., Ltd., priority 2007, published 2010).
Further values from the same series stand in other lists.

System: peripheral blood mononuclear cells (PBMC)
Assay: Microarray analysis (3), dose-dependent intron expression in PBMC at 3, 10, 30 nM, Table 5
Assay type: cell-based, human
Protocol: PBMC was suspended in RPMI1640 medium (containing 10% FBS, penicillin, and streptomycin) to 5×10^6 cells/ml and 1 ml of the suspension was plated per well of a 24-well plate. Immediately, 111 μl of 10 times-concentrated (8E,12E,14E)-7-((4-cycloheptylpiperazin-1-yl)carbonyl)oxy-3,6,16,21-tetrahydroxy-6,10,12,16,20-pentamethyl-18,19-epoxytricosa-8,12,14-trien-11-olide was added to the well (six wells per each concentration tested). The cells were then cultured in an incubator with 5% carbon dioxide gas at 37° C. Three hours later, the supernatant was collected and centrifuged at 1500 rpm for five minutes. TRI reagent (SIGMA) (1 ml) was added to each well of the plate from which the supernatant was removed to harvest the cells, which was added to the centrifuged pellet to dissolve. RNA was purified in accordance with the protocol of TRI reagent. RNA was further purified using RNeasy (QIAGEN) and, in accordance with the protocol, DNaseI was added to the samples during the procedure. Absorbance at 260 nm was measured to quantify an amount of RNA.
Ribosomal RNA was removed from 1 μg of each total RNA of control cells (n=3) and cells with the treatment (n=3) using RiboMinus Human/Mouse Transcriptome Isolation Kit (Invitrogen). Single stranded cDNA synthesis, double stranded cDNA synthesis, cRNA synthesis, second single stranded cDNA synthesis, cDNA fragmentation, and cDNA labeling in order were carried out for total RNA from which ribosomal RNA was removed, using GeneChip Whole Transcript Sense Target Labeling and Control Reagents (Affymetrix) to make a cDNA probe. Subsequently, the cDNA probe was used for hybridization with Human Exon 1.0 ST Array (Affymetrix). The array was washed and stained, and luminescence intensity was measured by a scanner.
The expression level of the probe set and the gene was quantified by using Expression Console Ver. 1.0 (Affymetrix) with Summarization Method and Normalization Method being set to “Median polish as used in RMA” and “None”, respectively. The expression level of the probe was normalized with that of the gene.
Probe sets showing that the normalized change in the level expression of the probe set in the group with the treatment at 30 nM was more than 5 times; the expression level of the probe set and the gene in the group with the treatment at 30 nM was more than 100; and probe set annotation was “extended, full, free”, were picked out. Regression analysis was performed with the probe sets extracted for the control group, the group with the treatment at 3 nM, the group with the treatment at 10 nM, and the group with the treatment at 30 nM to determine a p and q value for the slope of regression formula. A gene containing the probe sets with the q value of less than 5% was determined as a candidate gene with increased expression level of the intron regions (Table 5).
In Table 5, for the gene evaluated, gene name (Gene Name), abbreviated name (Gene Symbol), accession number (Accession), alias name (Synonym), transcription cluster number in Human Exon 1.0 ST Array (Human Exon 1.0 ST Array Transcription Cluster ID), chromosome number (Chromosome), type of strand (Strand), start region (Start), stop region (Stop), and change in expression level per 1 nM (Fold Change/nM) were respectively shown.

CCC(O)C(C)C1OC1CC(C)(O)/C=C/C=C(\C)C1OC(=O)CC(O)CCC(C)(O)C(OC(=O)N2CCN(C3CCCCCC3)CC2)/C=C/C1C (centres unmarked) [E7107, (8E,12E,14E)-7-((4-cycloheptylpiperazin-1-yl)carbonyl)oxy-3,6,16,21-tetrahydroxy-6,10,12,16,20-pentamethyl-18,19-epoxytricosa-8,12,14-trien-11-olide]
Fold Change/nM (gene IBRDC2 introns, regression over control, 3, 10, 30 nM): 1.05 nM⁻¹
Fold Change/nM (gene IFIT3 introns, regression over control, 3, 10, 30 nM): 1.05 nM⁻¹
Fold Change/nM (gene IK introns, regression over control, 3, 10, 30 nM): 1.05 nM⁻¹
Fold Change/nM (gene ILF2, intron expression, 3, 10, 30 nM): 1.06 nM⁻¹
Fold Change/nM (gene INTS6 introns, regression over control, 3, 10, 30 nM): 1.05 nM⁻¹
Fold Change/nM (gene ITCH introns, regression over control, 3, 10, 30 nM): 1.05 nM⁻¹
Fold Change/nM (gene KIAA0174 introns, regression over control, 3, 10, 30 nM): 1.05 nM⁻¹
Fold Change/nM (gene KIAA0247 introns, regression over control, 3, 10, 30 nM): 1.05 nM⁻¹
Fold Change/nM (gene KLF10 introns, regression over control, 3, 10, 30 nM): 1.05 nM⁻¹
Fold Change/nM (gene KLHL6 introns, regression over control, 3, 10, 30 nM): 1.05 nM⁻¹
Fold Change/nM (gene LAIR1, intron expression, 3, 10, 30 nM): 1.06 nM⁻¹
Fold Change/nM (gene LDHA introns, regression over control, 3, 10, 30 nM): 1.05 nM⁻¹
Fold Change/nM (gene MAP3K2, intron expression, 3, 10, 30 nM): 1.06 nM⁻¹
Fold Change/nM (gene MAP3K8, intron expression, 3, 10, 30 nM): 1.06 nM⁻¹
Fold Change/nM (gene MARCH7 introns, regression over control, 3, 10, 30 nM): 1.05 nM⁻¹
Fold Change/nM (gene MARK2 introns, regression over control, 3, 10, 30 nM): 1.05 nM⁻¹
Fold Change/nM (gene MAT2A, intron expression, 3, 10, 30 nM): 1.06 nM⁻¹
Fold Change/nM (gene MDM2 introns, regression over control, 3, 10, 30 nM): 1.05 nM⁻¹
Fold Change/nM (gene MKL1 introns, regression over control, 3, 10, 30 nM): 1.05 nM⁻¹
Fold Change/nM (gene MX1, intron expression, 3, 10, 30 nM): 1.06 nM⁻¹
Fold Change/nM (gene MXI1, intron expression, 3, 10, 30 nM): 1.06 nM⁻¹
Fold Change/nM (gene MYST2 introns, regression over control, 3, 10, 30 nM): 1.05 nM⁻¹
Fold Change/nM (gene N4BP1 introns, regression over control, 3, 10, 30 nM): 1.05 nM⁻¹
Fold Change/nM (gene NAB1, intron expression, 3, 10, 30 nM): 1.06 nM⁻¹
Fold Change/nM (gene NARS // SFXN3, intron expression, 3, 10, 30 nM): 1.06 nM⁻¹
Fold Change/nM (gene NCKAP1L, intron expression, 3, 10, 30 nM): 1.06 nM⁻¹
Fold Change/nM (gene NGRN introns, regression over control, 3, 10, 30 nM): 1.05 nM⁻¹
Fold Change/nM (gene NR4A1 introns, regression over control, 3, 10, 30 nM): 1.05 nM⁻¹
Fold Change/nM (gene NUP153, intron expression, 3, 10, 30 nM): 1.06 nM⁻¹
Fold Change/nM (gene OPA1, intron expression, 3, 10, 30 nM): 1.06 nM⁻¹
Fold Change/nM (gene OTUD4 introns, regression over control, 3, 10, 30 nM): 1.05 nM⁻¹
Fold Change/nM (gene PAN3, intron expression, 3, 10, 30 nM): 1.06 nM⁻¹
Fold Change/nM (gene PDE7A introns, regression over control, 3, 10, 30 nM): 1.05 nM⁻¹
Fold Change/nM (gene PFKFB3 introns, regression over control, 3, 10, 30 nM): 1.05 nM⁻¹
Fold Change/nM (gene PFTK1 introns, regression over control, 3, 10, 30 nM): 1.05 nM⁻¹
Fold Change/nM (gene PIAS1 introns, regression over control, 3, 10, 30 nM): 1.05 nM⁻¹
Fold Change/nM (gene PIK3C3, intron expression, 3, 10, 30 nM): 1.05 nM⁻¹
Fold Change/nM (gene PPHLN1 introns, regression over control, 3, 10, 30 nM): 1.05 nM⁻¹
Fold Change/nM (gene PPM1K, intron expression, 3, 10, 30 nM): 1.06 nM⁻¹
Fold Change/nM (gene PPP4R2, intron expression, 3, 10, 30 nM): 1.06 nM⁻¹
Fold Change/nM (gene PPP6C, intron expression, 3, 10, 30 nM): 1.06 nM⁻¹
Fold Change/nM (gene PRKAG2 introns, regression over control, 3, 10, 30 nM): 1.05 nM⁻¹
Fold Change/nM (gene PTPN1 introns, regression over control, 3, 10, 30 nM): 1.05 nM⁻¹
Fold Change/nM (gene RAB18 introns, regression over control, 3, 10, 30 nM): 1.05 nM⁻¹
Fold Change/nM (gene RAB21, intron expression, 3, 10, 30 nM): 1.06 nM⁻¹
Fold Change/nM (gene RAD21 introns, regression over control, 3, 10, 30 nM): 1.05 nM⁻¹
Fold Change/nM (gene RAPGEF1 introns, regression over control, 3, 10, 30 nM): 1.05 nM⁻¹
Fold Change/nM (gene RAPGEF6 // FNIP1, intron expression, 3, 10, 30 nM): 1.06 nM⁻¹
Fold Change/nM (gene RBM4, intron expression, 3, 10, 30 nM): 1.06 nM⁻¹
Fold Change/nM (gene RBM16 // TIAM2 introns, regression over control, 3, 10, 30 nM): 1.05 nM⁻¹
Fold Change/nM (gene RBM17, intron expression, 3, 10, 30 nM): 1.06 nM⁻¹
Fold Change/nM (gene RBM22 introns, regression over control, 3, 10, 30 nM): 1.05 nM⁻¹
Fold Change/nM (gene RBM25 introns, regression over control, 3, 10, 30 nM): 1.05 nM⁻¹
Fold Change/nM (gene RIN3 introns, regression over control, 3, 10, 30 nM): 1.05 nM⁻¹
Fold Change/nM (gene ROCK1, intron expression, 3, 10, 30 nM): 1.06 nM⁻¹
Fold Change/nM (gene SEC24C introns, regression over control, 3, 10, 30 nM): 1.05 nM⁻¹
